Publication PMC5362230, “MCPIP1, alias Regnase-1 binds and cleaves mRNA of C/EBPβ” (PLoS ONE, 2017)
Results are given in words; binding and its absence hold for the method and conditions named.

Target: MCPIP1 PIN-D141N (human) (UniProt Q5D1E8)
Test: native gel or EMSA; increasing amounts of purified protein (0-200 pmol) incubated with 2 pmol in vitro transcribed 3'UTR fragments of C/EBPβ mRNA; 25 mM Tris, 150 mM NaCl, 2.5 mM MgCl2, 2.5 mM DTT, 0.5 mM EDTA, 0.025 mM ZnCl2, pH 8.3; on ice 20 min; 0.8% agarose gel in TAE; oligomers read from heavier protein-RNA complexes; both purified

binding: no binding (tested: 200 pmol)
B1: MCPIP1 PIN-D141N (domain or fragment, UniProt Q5D1E8 134-327)
chain: DLRPVVINGSNVAMSHGNKEVFSCRGILLAVNWFLERGHTDITVFVPSWRKEQPRPDVPITDQHILRELEKKKILVFTPSRRVGGKRVVCYDDRFIVKLAYESDGIVVSNDTYRDLQGERQEWKRFIEERLLMYSFVNDKFMPPDDPLGRHGPSLDNFLRKKPLTLEHRKQPCPYGRKCTYGIKCRFFHPERPS
